Results taken from paper PMC9454942, “Novel AR/AR-V7 and Mnk1/2 Degrader, VNPP433-3β: Molecular Mechanisms of Action and Efficacy in AR-Overexpressing Castration Resistant Prostate Cancer In Vitro and In Vivo Models” (Cells, 2022).
Results are given in words; binding and its absence hold for the method and conditions named. Binding seen in cells or lysates may run through a third protein. Some results given as binding are weak or reduced against the parent protein; the word gives no strength.

Chains of the proteins cited; added tags and fusions are not shown. Lines headed by an entry give the natural chain unless they say otherwise; changes in a name come on top. A line that says so, or that is headed by a name, gives the form on record, which may keep a tag or linker.
UniProt Q9UNE7: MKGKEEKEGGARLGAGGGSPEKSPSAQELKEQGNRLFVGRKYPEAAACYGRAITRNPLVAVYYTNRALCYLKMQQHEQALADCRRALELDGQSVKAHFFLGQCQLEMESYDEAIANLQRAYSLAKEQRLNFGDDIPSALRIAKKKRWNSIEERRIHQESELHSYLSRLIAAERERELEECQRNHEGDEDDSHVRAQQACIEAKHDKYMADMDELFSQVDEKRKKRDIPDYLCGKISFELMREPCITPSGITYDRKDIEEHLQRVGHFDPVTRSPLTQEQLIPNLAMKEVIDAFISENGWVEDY
UniProt Q00987: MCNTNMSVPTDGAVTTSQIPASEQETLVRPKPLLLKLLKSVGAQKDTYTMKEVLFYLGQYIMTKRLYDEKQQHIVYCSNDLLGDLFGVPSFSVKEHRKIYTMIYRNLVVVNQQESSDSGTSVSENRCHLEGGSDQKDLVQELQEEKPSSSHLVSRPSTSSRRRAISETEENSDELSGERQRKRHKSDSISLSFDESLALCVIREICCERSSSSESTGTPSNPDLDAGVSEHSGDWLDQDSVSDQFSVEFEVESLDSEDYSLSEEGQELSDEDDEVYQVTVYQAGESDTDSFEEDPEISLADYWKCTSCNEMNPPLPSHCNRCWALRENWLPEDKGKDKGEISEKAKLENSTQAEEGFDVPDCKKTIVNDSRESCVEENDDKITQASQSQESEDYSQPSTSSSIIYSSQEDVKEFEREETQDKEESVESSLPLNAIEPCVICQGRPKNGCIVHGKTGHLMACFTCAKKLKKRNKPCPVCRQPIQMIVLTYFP
androgen receptor splice variant AR-V7 (P10275-3, form named): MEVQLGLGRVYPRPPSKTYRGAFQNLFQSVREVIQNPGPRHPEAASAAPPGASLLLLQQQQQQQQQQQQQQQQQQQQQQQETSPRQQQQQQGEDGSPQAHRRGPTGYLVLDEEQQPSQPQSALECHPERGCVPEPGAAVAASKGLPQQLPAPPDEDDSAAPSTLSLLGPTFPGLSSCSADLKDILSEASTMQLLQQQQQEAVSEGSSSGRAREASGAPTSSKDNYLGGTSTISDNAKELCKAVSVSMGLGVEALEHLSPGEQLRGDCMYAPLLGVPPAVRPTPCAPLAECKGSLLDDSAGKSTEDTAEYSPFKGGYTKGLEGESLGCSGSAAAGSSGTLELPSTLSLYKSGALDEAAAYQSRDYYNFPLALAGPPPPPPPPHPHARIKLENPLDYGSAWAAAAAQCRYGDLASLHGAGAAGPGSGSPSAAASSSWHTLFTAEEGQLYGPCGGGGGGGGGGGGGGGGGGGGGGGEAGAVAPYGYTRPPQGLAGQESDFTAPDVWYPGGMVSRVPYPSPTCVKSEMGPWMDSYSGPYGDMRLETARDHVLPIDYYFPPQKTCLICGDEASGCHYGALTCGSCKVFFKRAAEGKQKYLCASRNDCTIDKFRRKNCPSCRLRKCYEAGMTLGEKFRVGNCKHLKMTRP

How the values were obtained:
[1] = molecular target: E3 ligase CHIP (human (endogenous in CWR22Rv1 and LNCaP)) (UniProt Q9UNE7); assay: co-IP; CWR22Rv1 and LNCaP cells hormone-starved for 48 h, treated with DMSO or VNPP433-3β (10 µM) for 4 h; lysate with 1 mg protein on Dynabeads Protein A carrying 3-5 µg antibody (anti-AR, anti-MDM2, anti-CHIP or anti-HSP90); immunoblot
[2] = molecular target: E3 ligase MDM2 (human (endogenous in CWR22Rv1 and LNCaP)) (UniProt Q00987); assay: as above

binding [1]: binds
binding [2]: binds
Substance: androgen receptor splice variant AR-V7 (from UniProt P10275-3 1-644)
